In PubChem BioAssay AID540256 (National Center for Advancing Translational Sciences (NCATS), 2011):
In all, about 300,000 compounds went through this assay and about 3,700 (1.2%) were called active. Inconclusive means that the source gave no clear call. Such entries were picked first, then a sample of the others. Calls follow the shape of the full dose curve; tested in HEK293 cells. Where the call is inconclusive, the potency comes from a doubtful curve fit.

Test: qHTS for Inhibitors of binding or entry into cells for Lassa Virus; also: nearly all actives have a fitted effect of over 50% in size
Conditions: Lassa virus pseudotype entry inhibition, cell reporter; series mostly up to 37.9 µM
Potency is read from the fitted curve at half-maximal effect.

Row | SMILES | Potency
1 | Cc1ccc(C(C)C)c(OCCCN2C(=O)NC(C)(C)C2=O)c1 | active: 11.6 µM
2 | COc1ccc(NS(=O)(=O)c2ccc(NC(=O)Cc3cccs3)cc2)cc1 | inconclusive: 7.31 µM [inhibitor, partial curve, poor fit]
3 | O=C(COc1ccc2cc(Br)ccc2c1Br)N1CCOCC1 | inconclusive: 22.4 µM [inhibitor, single point]
4 | COc1cc(OC)c(NC(=O)c2cc(CN3CCOCC3)on2)cc1Cl | inactive
5 | O=S(=O)(c1cccc2nsnc12)N1CCNCC1 | inconclusive: 1.26 µM [inhibitor, full curve, poor fit]
6 | CC(C)NC(=O)CC1C(=O)NCCN1CC(c1ccccc1)c1ccccc1 (stereo not given) | inconclusive: 8.91 µM [inhibitor, partial curve, poor fit]
7 | O=C(Nc1ccc(N2CCN(C(=O)c3ccco3)CC2)c(Cl)c1)c1cc2ccccc2o1 | inconclusive: 35.5 µM [inhibitor, single point]
8 | Cc1ccn(CC(=O)N/N=C/c2cc([N+](=O)[O-])ccc2O)n1 | inconclusive: 35.5 µM [inhibitor, single point]
9 | Nc1nc(NCCCN2CCOCC2)nc(Nc2cccc(Cl)c2)c1[N+](=O)[O-] | inconclusive: 35.5 µM [inhibitor, single point]
10 | COc1ccc(-c2[nH]c(-c3cc(OC)c4c(c3)OCO4)nc2-c2ccccc2)cc1 | inconclusive: 12.6 µM [inhibitor, partial curve, poor fit]
11 | Cc1oc(C)c2c(=O)cc(-c3ccc4c(c3)OCO4)cc(OC(=O)c3ccccc3Br)c12 | inactive
12 | Cc1ccc(COc2ccc(CNCCCN3CCCCCC3=O)cc2)cc1 | inconclusive: 35.5 µM [inhibitor, single point]
13 | CCOc1cccc(C2C(C(=O)c3ccc(C)o3)=C(O)C(=O)N2CCCn2ccnc2)c1 (stereo not given) | inactive
14 | COc1ccc(Cc2nnc(NC(=O)c3ccc(C)cc3)s2)cc1OC | inconclusive: 6.31 µM [inhibitor, partial curve, poor fit]
15 | COc1ccc(S(=O)(=O)N(CC(=O)NCc2ccco2)c2ccc(F)cc2)cc1 | inconclusive: 35.5 µM [inhibitor, partial curve, poor fit]
16 | O=C(CSc1ccccc1)N1CCN(c2ccccn2)CC1 | inactive
17 | COc1cccc(C2=NOC(C(=O)N3CCOCC3)C2)c1 (stereo not given) | inconclusive: 3.26 µM [activator, single point]
18 | O=C(N/N=C/c1cccc(O)c1)N/N=C/c1cccc(O)c1 | inconclusive: 0.794 µM [activator, full curve]
19 | CCOC(=O)c1cc(C)sc1NC(=O)CSC1=NCCS1 | inconclusive: 35.5 µM [inhibitor, single point]
20 | O=C(COC(=O)c1ccc(S(=O)(=O)NCc2ccco2)cc1)NC1CCCCC1 | inactive
21 | COC(=O)c1ccc(CC(=O)c2nc3ccccc3s2)cc1 | inactive
22 | Oc1ccc(Nc2ccnc3cc(Cl)ccc23)cc1 | inactive
23 | CSc1ccccc1C(=O)Nc1cccc(C)c1 | inconclusive: 29.1 µM [activator, single point]

Row | SMILES | Potency
24 | C(=Cc1cnnc2ccccc12)c1ccccc1 | inactive
25 | COc1cc2ccccc2cc1C(=O)NC(=S)Nc1cccc(C(=O)O)c1 | inactive
26 | CCn1c(C(C)NC(=O)c2ccc(OC)c(OC)c2)nc2ccccc21 (stereo not given) | inactive
27 | CCOc1ccccc1NC(=O)CCS(=O)(=O)c1cccc2nonc12 | inconclusive: 6.51 µM [inhibitor, partial curve, poor fit]
28 | CCC(=O)Nc1nonc1-c1nc2ccccc2n1Cc1cccc2ccccc12 | inconclusive: 10.3 µM [inhibitor, single point]
29 | Cn1cccc1CNC(=O)Nc1ccc(Cl)c(Cl)c1 | inconclusive: 10 µM [activator, partial curve]
30 | CC1CN(S(=O)(=O)c2ccc(C(=O)Nc3ccc(S(=O)(=O)Nc4nccs4)cc3)cc2)CC(C)O1 (stereo not given) | inactive
31 | COc1cc2c(cc1NC(=O)/C=C/c1ccccc1)oc1ccccc12 | inconclusive: 3.26 µM [inhibitor, partial curve, poor fit]
32 | O=c1c2cc(N3CCOCC3)ccc2[nH]c(=S)n1CCN1CCCC1 | inactive
33 | Cc1ccc(Cl)c2sc(NC(=O)CS(=O)(=O)c3ccc(Cl)cc3)nc12 | inconclusive: 35.5 µM [inhibitor, single point]
34 | CCCCOc1ccc(SCCCN2CCOCC2)cc1 | inactive
35 | Cc1ccc(/C=N/n2c(C)cc(C)c(C#N)c2=O)cc1 | inactive
36 | CN(C)c1ccc(CNC(=O)c2cc3cc(S(=O)(=O)N4CCCCC4)ccc3n2C)cc1 | active: 10 µM
37 | Cc1ccc(C(=O)NCc2ccc3c(c2)OCO3)c(C)c1 | inconclusive: 35.5 µM [inhibitor, partial curve, poor fit]
38 | Cc1cccc(N(Cc2ccccc2)C(=O)c2cc(S(=O)(=O)N3CCOCC3)ccc2Cl)c1 | inconclusive: 7.08 µM [inhibitor, partial curve, poor fit]
39 | Cc1ccc(-c2c(C(=O)Nc3ccc(F)c(F)c3)oc(=O)c3ccccc23)cc1 | inconclusive: 2.82 µM [activator, full curve, poor fit]
40 | COc1ccc(/C=C/C(=O)C2(O)CCCCC2)cc1 | inconclusive: 22.4 µM [inhibitor, partial curve, poor fit]
41 | CC(=O)c1nn(-c2cccc(Br)c2)cc1C(=O)c1ccc(C)cc1 | inconclusive: 9.2 µM [inhibitor, partial curve, poor fit]
42 | CN(CCOc1ccc(Br)cc1)CC(O)COc1ccc(C#N)cc1 (stereo not given) | inconclusive: 11.2 µM [inhibitor, partial curve, poor fit]
43 | CCCOC(=O)c1ccc(Oc2c(-c3ccc(O)cc3O)n[nH]c2C)cc1 | inconclusive: 35.5 µM [inhibitor, single point]
44 | CCc1cc(/C(Cc2csc(C)n2)=N/O)c(O)cc1O | inconclusive: 10 µM [inhibitor, partial curve, poor fit]
45 | O=C(Nc1nnc(C2CC2)s1)C1Cc2ccccc2CN1S(=O)(=O)c1ccccc1F (stereo not given) | inactive

Two of these compounds in a different format.
Row,SMILES,Potency
25,COc1cc2ccccc2cc1C(=O)NC(=S)Nc1cccc(C(=O)O)c1,inactive
39,Cc1ccc(-c2c(C(=O)Nc3ccc(F)c(F)c3)oc(=O)c3ccccc23)cc1,"inconclusive: 2.82 µM [activator, full curve, poor fit]"
